Assay results as given in US20190062399A1.
No constants are given. Whether binding was seen depends on the method and setting. Some entries that bind do so weakly or less than the wild type.

Molecular target: Protein A eluate of the HIC cleaning peak (mixture of all CTLA4-Ig species) (human)
Assay: Protein A affinity chromatography

binding: binds
Substance: Protein A (immobilised on chromatography resin) (from UniProt P38507 37-327)
